This is an account of results in paper PMC6182141, “Lytic gene expression in the temperate bacteriophage GIL01 is activated by a phage-encoded LexA homologue”.

For some assays here: Negatives hold for the conditions tested. For some assays here: At least one verdict rests on a figure or table, not on a statement of the authors. For some assays here: Protein sequences can lack the tags named with them. For some assays here: The comparison behind a weaker result is the experiment's own reference, which may not be listed here. For some assays here: Construct, isoform or probe ends are uncertain for at least one entry.

One series has as its system LexA. Kind of series: SPR. As to conditions: SPR: 25 mM Tris-HCl pH 7.4, 140 mM NaCl, 5 mM EDTA, 2 mM DTT, 0.1 mg/ml BSA, 0.005% P20, 25 C, recombinant protein, protein details: N-terminal His6, label: 3'-biotin-TEG on S1 capture oligo.
In another series the test system is LexA + gp7. Nature of the series: SPR. As to conditions: SPR: 25 mM Tris-HCl pH 7.4, 140 mM NaCl, 5 mM EDTA, 2 mM DTT, 0.1 mg/ml BSA, 0.005% P20, 25 C; recombinant protein; protein details: N-terminal His6,N-terminal His6; label: 3'-biotin-TEG on S1 capture oligo.
The next series has as its system LexA + gp6. Nature of the series: SPR. Particulars: saturating both, responses additive; SPR: 25 mM Tris-HCl pH 7.4, 140 mM NaCl, 5 mM EDTA, 2 mM DTT, 0.1 mg/ml BSA, 0.005% P20, 25 C; recombinant protein; protein details: N-terminal His6,N-terminal His6 + thrombin site; label: 3'-biotin-TEG on S1 capture oligo.
The target in series [1] is T1, gp7 (Bacillus thuringiensis phage GIL01) (UniProt Q7WSG2).
T1 sequence: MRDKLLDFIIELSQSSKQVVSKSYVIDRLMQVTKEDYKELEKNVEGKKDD
Nature of the series: SPR. As to conditions: gp7 alone; SPR: 25 mM Tris-HCl pH 7.4, 140 mM NaCl, 5 mM EDTA, 2 mM DTT, 0.1 mg/ml BSA, 0.005% P20, 25 C; recombinant protein; protein details: N-terminal His6; label: 3'-biotin-TEG on S1 capture oligo.

The target of series [2] is T2, gp6 (Bacillus thuringiensis phage GIL01) (UniProt Q5ILC6).
T2 sequence: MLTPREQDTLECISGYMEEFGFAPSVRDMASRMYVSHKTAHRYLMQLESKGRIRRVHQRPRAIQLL
Nature of the series: DNase I footprinting. As to conditions: gp6 0.3-1.35 uM, protects -35 region; recombinant protein; protein details: N-terminal His6 + thrombin site; label: 32P end label (bottom strand for footprint); probe letters rebuilt from the primers and the genome; part of a longer molecule.

The target of series [3] is T2, gp6 (Bacillus thuringiensis phage GIL01). Kind of series: EMSA. As to conditions: recombinant protein, protein details: N-terminal His6 + thrombin site, label: 32P end label (bottom strand for footprint), probe letters rebuilt from the primers and the genome, part of a longer molecule.
The target in series [4] is gp6 K38A (Bacillus thuringiensis phage GIL01) (UniProt Q5ILC6). Nature of the series: EMSA. As to conditions: 0.15-2.4 uM; recombinant protein; residues 1-66; protein details: N-terminal His6 + thrombin site; label: 32P end label (bottom strand for footprint); probe letters rebuilt from the primers and the genome; part of a longer molecule.
The target in series [5] is T2, gp6 (Bacillus thuringiensis phage GIL01). Kind of series: SPR. As to conditions: decreased stability; SPR: 25 mM Tris-HCl pH 7.4, 140 mM NaCl, 5 mM EDTA, 2 mM DTT, 0.1 mg/ml BSA, 0.005% P20, 25 C; recombinant protein; protein details: N-terminal His6 + thrombin site; label: 3'-biotin-TEG on S1 capture oligo.

For the sequence “GTTACTACTCGAGCGCGTTATGCGGAACACTCGTTCGTATTATAGTATATAATACATATAGCGAACAAACATTCGATAAGGAG / CTCCTTATCGAATGTTTGTTCGCTATATGTATTATATACTATAATACGAACGAGTGTTCCGCATAACG [B23_5ex (5 nt inserted between boxes)]”, the binding result in the series with LexA and with LexA + gp7 was “binds” in each case.
As for “GTTACTACTCGAGCGCGTTATGCGGAACACTCGTTCGTATTATAGTATATCTATATATACATATAGCGAACAAACATTCGATAAGGAG / CTCCTTATCGAATGTTTGTTCGCTATATGTATTATAGATATACTATAATACGAACGAGTGTTCCGCATAACG [B23_10ex (10 nt inserted between boxes)]”, the binding result in the series on LexA and in the series on LexA + gp7 was “binds” in each case.
Regarding “GTTACTACTCGAGCGATTTGTCCAAAATGACACACGTGTGACGTTATGCGGAACACTCGTTCGTATTATAGTATACATATAGCGAACAAACATTCGATAAGGAG / CTCCTTATCGAATGTTTGTTCGCTATATGTATACTATAATACGAACGAGTGTTCCGCATAACGTCACACGTGTGTCATTTTGGACAAAT [B23_Lwt (-35, dinBox2, dinBox3)]”, the binding result in the series on LexA and with LexA + gp6 was “binds” each time.
In the case of “GTTACTACTCGAGCGCGTTATGCGGAACACTCGTTCGTATTATAGTATACATATAGCGAACAAACATTCGATAAGGAG / CTCCTTATCGAATGTTTGTTCGCTATATGTATACTATAATACGAACGAGTGTTCCGCATAACG [B23_wt]”, the binding result with LexA (stable, concentration-dependent) is listed as “binds”; with LexA + gp7 it was “binds”; in series [1], “no binding”.
For “GTTACTACTCGAGCGCGTTATGCGTAGCACTCGTGCGTATTATAGTATACATATAGCTAGCAAACATGCGATAAGGAG / CTCCTTATCGCATGTTTGCTAGCTATATGTATACTATAATACGCACGAGTGCTACGCATAACG [B23_ns (both LexA boxes mutated)]”, in the series with LexA, the binding result is “no binding”.
Consider “AGCATTAAGGAGACAAGCAAAACCGACATTACTTGAAACCATGAAGGCAATAGAGATTCTTGTTGAACAAGGAATAGTAGAAAAGGACTAGCAAAGTTGCTAGTCTTTTTTATTTGTCCAAAATGACACACGTGTGACGTTATGCGGAACACTCGTTCGTATTATAGTATACATATAGCGAACAAACATTCGATAAGGAGTGTGACAAAGTGGATGCTTTAACGGAACTAATCATAGCTAA (double strand) [AatII-HindIII P3 promoter fragment]”, for which the binding result is “binds” in series [2], “binds” in series [3] (gp6 0.15-2.4 uM), “binds” in series [3] (gp6 0.3-1.35 uM) and “no binding” in series [4].
“GTTACTACTCGAGCGATTTGTCCAAAATGACCCACGTGTGACGTTATGCGG / CCGCATAACGTCACACGTGGGTCATTTTGGACAAAT [B23_Sm2]”: in series [5], the binding result is reported as “binds more weakly”.
Still for that read-out and setting: next, “GTTACTACTCGAGCGATTTGTCCAAAATTACACACGTGTGACGTTATGCGG / CCGCATAACGTCACACGTGTGTAATTTTGGACAAAT [B23_Sm1]”: “binds more weakly”; “GTTACTACTCGAGCGATTTGTCCAAAATGACACACGTATGACGTTATGCGG / CCGCATAACGTCATACGTGTGTCATTTTGGACAAAT [B23_Sm3]”: “binds more weakly”.
